Measurements from article PMC4498186.
These are yes or no findings as the source states them, for the method shown.

Chains of the proteins cited; added tags and fusions are not shown. Lines headed by an entry give the natural chain unless they say otherwise; changes in a name come on top. A line that says so, or that is headed by a name, gives the form on record, which may keep a tag or linker.
eGFP-tagged CRF1R StaR (full length, 12 point mutations) (P34998-2, form named): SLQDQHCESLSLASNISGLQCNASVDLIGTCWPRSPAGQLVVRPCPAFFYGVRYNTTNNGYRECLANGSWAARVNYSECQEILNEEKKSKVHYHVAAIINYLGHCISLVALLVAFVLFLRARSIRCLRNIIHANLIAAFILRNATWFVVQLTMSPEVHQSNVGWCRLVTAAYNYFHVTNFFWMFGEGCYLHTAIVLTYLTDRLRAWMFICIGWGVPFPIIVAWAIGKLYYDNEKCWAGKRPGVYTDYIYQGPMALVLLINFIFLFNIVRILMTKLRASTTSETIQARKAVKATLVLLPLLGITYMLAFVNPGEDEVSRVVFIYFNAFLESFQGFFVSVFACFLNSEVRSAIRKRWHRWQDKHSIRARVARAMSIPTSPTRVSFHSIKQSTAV

Biological target: eGFP-tagged CRF1R StaR (full length, 12 point mutations) (UniProt P34998)
Assay: SEC; fluorescence-detection size exclusion chromatography (FSEC) of eGFP-tagged receptor solubilised from HEK293T cells, analysed in DDM

- binding: no binding
Substance: eGFP-tagged CRF1R StaR (full length, 12 point mutations) (from UniProt P34998-2 24-415) (receptor)
